Literature values in US20220001014A1 (priority 2020, published 2022).
At least one compound was matched to its structure with a doubt left.

Experiments:
COVID-19 = conditions: human randomized control study of 237 patients
SARS-CoV-2 [1] = conditions: in vitro
MERS-CoV = conditions: animal models
SARS-CoV-1 = conditions: animal models
SARS-CoV-2 [2] = conditions: animal models

SMILES: CCC(CC)COC(=O)[C@H](C)N[P@](=O)(OC[C@H]1O[C@@](C#N)(c2ccc3c(N)ncnn23)[C@H](O)[C@@H]1O)Oc1ccccc1 [Remdesivir]
- clinical benefit (COVID-19): not associated with statistically significant clinical benefits
- inhibitory effects on coronaviruses including SARS-CoV-2 (SARS-CoV-2 [1]): has inhibitory effects
- MERS-CoV replication (MERS-CoV): inhibits
- SARS-CoV-1 replication (SARS-CoV-1): inhibits
- SARS-CoV-2 replication (SARS-CoV-2 [2]): inhibits
